Experimental data taken from patent US6878804B1 (University of Zurich, priority 1999, dated 2005).

Assay: general procedure: Fmoc solid-phase peptide synthesis; 2-chlorotrityl chloride resin (Polyphor, 1.25 mmol/g); HBTU/HOBt/DIEA; cyclisation HATU/HOAt/DIPEA
Details: whole synthesis, analytical HPLC (Nucleosil 100-5 Protect 1, acetonitrile/water 0.1% TFA)

Substance	crude HPLC purity [%]
PEPTIDE1{P.A.I.V.R.K.K.P.A.[dP]}$PEPTIDE1,PEPTIDE1,1:R1-10:R2$$$V2.0	95
PEPTIDE1{P.E.A.V.R.K.K.A.I.[dP]}$PEPTIDE1,PEPTIDE1,1:R1-10:R2$$$V2.0	90

Strings that start with PEPTIDE1 are HELM notation: dots part the residues, brackets hold end groups and non-standard residues.
